Experimental data reported in paper PMC8184944, “Crystal structures of aconitase X enzymes from bacteria and archaea provide insights into the molecular evolution of the aconitase superfamily” (Communications Biology, 2021).
Results are given in words; binding and its absence hold for the method and conditions named. Some entries that bind do so weakly or less than the wild type. Sequences can lack the tags named with a protein.

Assays:
[1] = target: T1, TkAcnXS, small subunit of aconitase X (AcnX Type-IIb) from Thermococcus kodakarensis, (His)6-tag removed (Thermococcus kodakarensis) (UniProt Q5JGJ7); experiment: crystal structure; TkAcnX apo-form, 3.4 Å; 200 mM ammonium citrate tribasic pH 7.0, 24% PEG 3350, 20°C; both purified
T1 sequence: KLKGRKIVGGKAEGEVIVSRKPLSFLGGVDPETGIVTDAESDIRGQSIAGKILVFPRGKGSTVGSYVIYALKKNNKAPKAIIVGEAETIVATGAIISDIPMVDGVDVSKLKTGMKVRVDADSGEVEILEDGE

[2] = target: T1, TkAcnXS, small subunit of aconitase X (AcnX Type-IIb) from Thermococcus kodakarensis, (His)6-tag removed (Thermococcus kodakarensis); experiment: SEC; gel filtration of purified TkAcnX; HiLoad 16/600 Superdex 200 pg, 20 mM Tris-HCl pH 8.0, 150 mM NaCl; native mass estimated; both purified
[3] = target: T1, TkAcnXS, small subunit of aconitase X (AcnX Type-IIb) from Thermococcus kodakarensis, (His)6-tag removed (Thermococcus kodakarensis); experiment: crystal structure; TkAcnX co-crystallised with 40 mM MVA5P, 1.9 Å; 50 mM ammonium sulfate, 50 mM Bis-Tris pH 6.5, 30% pentaerythritol ethoxylate, 20°C; both purified
[4] = target: T2, TkAcnXS, small subunit of aconitase X (AcnX Type-IIb) from Thermococcus kodakarensis, with a (His)6-tag at the N terminus (Thermococcus kodakarensis) (UniProt Q5JGJ7); experiment: co-purification by nickel-chelating affinity chromatography; both subunits co-expressed in E. coli; (His)6-TkAcnXS held on Ni-NTA Superflow; 50 mM sodium phosphate pH 8.0, 300 mM NaCl, imidazole; SDS-PAGE of the eluate
T2 sequence: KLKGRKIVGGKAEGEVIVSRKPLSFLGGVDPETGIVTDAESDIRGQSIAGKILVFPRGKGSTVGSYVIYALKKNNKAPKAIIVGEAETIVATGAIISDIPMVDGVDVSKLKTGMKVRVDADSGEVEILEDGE

- binding [1]: binds
- binding [2]: binds
- binding [3]: binds
- binding [4]: binds
B1: TkAcnXL, large subunit of aconitase X (AcnX Type-IIb) from Thermococcus kodakarensis (protein, UniProt Q5JGJ6 1-386)
chain: MYLTKEEELILAGEYGYALQKAMEILVALGDIYGADRLIPIKSAQVAGVSYKNIGDAGIEFLRDFVEAGAKVSVYTTLNPAGIGDDEFMEKQMEVLELYRKMGIEVTSTCTPYYGANLPKFGDHIAWSESSAVSFANSILGARTNREGGPSSLAAAIVGKTPNYGLHLDENRKATVIVDVKAKVKTFADYSVLGYHVGKTLGNDVPYFKNLKPEKTEFLKELGAAMGATGSIALYHVEGETPEYREAITDKLETITVEDSDLKAVRESFQDDWSDIDMILIGCPHASLPEVKEIAELLRMRGKPLKIPLFITASRAVKALADALGYTEIIERYNGKIIPDSCFVVSPIKGWYRGIATNSGKSAFYFRSFGFSVRLDDVENLIKEAP
